Results are given in words; binding and its absence hold for the method and conditions named. In cells and extracts the contact can be indirect. A yes stands for co-enrichment or nearness to the bait. Other partners may have been found. A no says only that the protein was not detected with the bait.
B1: MXD4 (protein, UniProt Q60948 1-209)
chain: MELNSLLLLLEAAEYLERRDREAEHGYASMLPFDGDFARKKTKTAGLVRKGPNNRSSHNELEKHRRAKLRLYLEQLKQLGPLGPDSTRHTTLSLLKRAKMHIKKLEEQDRRALSIKEQLQREHRFLKRRLEQLSVQSVERVRTDSTGSAVSTDDSEQEVDIEGMEFGPGELDSAGSSSDADDHYSLQSSGCSDSSYGHPCRRPGCPGLS
B2: MNT (protein, UniProt O08789 1-591)
chain: MSIETLLEAARFLEWQAQQQQRAREEQERLRLEREREREQEQKRASNLARLAHALPVEEPRIEAPPLPLSPPAPPPAPPPPLATPAPLTVIPIPVVTNSPQSLPPPPPLPPAAQPLPLAPRQPALVSTPGLSIKEPVTLPTRPQVPTPAPLLPDAKTTVAPTGSPKPLQPLPAPILTIAPHPGVQPQLAPQQPPPPTLGTLKLAPAEEAKSSEQKKRPGGIGTREVHNKLEKNRRAHLKECFETLKRNIPNVDDKKTSNLSVLRTALRYIQSLKRKEKEYEHEMERLAREKIATQQRLAELKHELSQWMDVLEIDRVLRQTGQPEDDQASTSTASEGEDNVDEEMEGDRAGLGPPKLNHRPQPELLKSALPTPSTAPAPLPTHPHPHPHPVALSPAHLPVQQQQPPQQKTPLPAPPPPPATPTQTLVPAPAHLVATAGGGSTVIAHTATTHASVIQTVNHVLQGPGGKHIAHIAPSAPSPAVQLAPATPPIGHITVHPATLNHVAHLGSQLPLYPQPVAVSQPVAVSHIAHTLSHQQVNGTAGLGPPATVMAKPAVGAQVVHHPQLVGQTVLNPVTMVTMPSFPVSTLKLA
B3: MXI1 (protein, UniProt P50540 1-228)
chain: MERVRMINVQRLLEAAEFLERRERECEHGYASSFPSMPSPRLQHSKPPRRLSRAQKHSSGSSNTSTANRSTHNELEKNRRAHLRLCLERLKVLIPLGPDCTRHTTLGLLNKAKAHIKKLEEAERKSQHQLENLEREQRFLKRRLEQLQGPQEMERIRMDSIGSTISSDRSDSEREEIEVDVESTEFSHGEADSVSTTSISDLDDHSSLQSVGSDEGYSSASVKLSFAS

Amino acid sequences for entries named in this document (tags omitted).
UniProt P28574: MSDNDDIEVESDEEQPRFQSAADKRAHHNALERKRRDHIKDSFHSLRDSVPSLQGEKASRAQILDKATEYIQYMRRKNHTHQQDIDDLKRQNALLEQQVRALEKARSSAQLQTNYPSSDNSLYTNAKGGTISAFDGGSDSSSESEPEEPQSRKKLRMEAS
UniProt P50538: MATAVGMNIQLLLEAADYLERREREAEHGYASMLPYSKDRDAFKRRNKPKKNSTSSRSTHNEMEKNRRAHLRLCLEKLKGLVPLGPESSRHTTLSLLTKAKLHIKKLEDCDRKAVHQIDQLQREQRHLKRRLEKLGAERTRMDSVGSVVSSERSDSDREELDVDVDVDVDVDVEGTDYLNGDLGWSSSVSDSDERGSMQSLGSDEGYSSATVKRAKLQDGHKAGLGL

What follows are molecules tested against FLAG-tagged MAX (UniProt P28574) (assay: affinity purification with mass spectrometry; C2C12 cells transfected with flag vector or MAX-flag plasmid, 48 h; lysis in 0.1% NP-40, 50 mM HEPES pH 7.5, 250 mM NaCl, 5 mM EDTA; anti-flag magnetic beads overnight at 4 °C; five washes; eluate analysed on Bruker timsTOF Pro; flag-MAX sample compared with flag-vector sample).

binding, no binding:
MXD1 (from UniProt P50538 1-227)
B1
B2
B3

Reference: PMC12412246
